The source of these data is PMC6286129, “CryoEM structures of open dimers of gyrase A in complex with DNA illuminate mechanism of strand passage” (eLife, 2018).

The exact form of at least one protein or probe is not confirmed.

This series deals with GyrA-ΔCTD, Dihedral complex (four open dimers) (UniProt A0A0Y2BJX7). The series can be described thus: cryo-EM. The conditions noted are these: no glutaraldehyde, no antibiotics, C2 map 10.3 A, Assembly: 50 mM Tris-HCl pH 7.5, KCl (concentration not given), 5 mM DTT, 5% glycerol, 10 mM SrCl2, gradient: 50 mM Hepes pH 7.5, 55 mM KCl, recombinant protein.

“TCGCGACGCGAGGCTGGATGGCCTTCCCCATTATGATTCTTCTC (double strand) [44 bp gyrase-binding DNA]”: the binding result is reported as “binds”.
